Source: the supplement of paper PMC12823440, “Inhibitors supercharge kinase turnover through native proteolytic circuits” (Nature, 2025)
The list shows a part of the results. The calls rarely recur for the same compound in another form.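 In K562 cells expressing nanoluciferase-fused kinases, luminescence was recorded at 4 h intervals between 2 and 18 h, normalized as percent of control with DMSO at 100% and a positive control at 0%. A significant (2 sigma) signal drop marks a time point as decreased. The authors' rule for a hit is not shown and takes in more than the number of time points.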

Amino acid sequences for entries named in this document (tags omitted). A change or cut given only in a name is not applied to a line headed by its entry.
UniProt Q05397, whole entry, looked up: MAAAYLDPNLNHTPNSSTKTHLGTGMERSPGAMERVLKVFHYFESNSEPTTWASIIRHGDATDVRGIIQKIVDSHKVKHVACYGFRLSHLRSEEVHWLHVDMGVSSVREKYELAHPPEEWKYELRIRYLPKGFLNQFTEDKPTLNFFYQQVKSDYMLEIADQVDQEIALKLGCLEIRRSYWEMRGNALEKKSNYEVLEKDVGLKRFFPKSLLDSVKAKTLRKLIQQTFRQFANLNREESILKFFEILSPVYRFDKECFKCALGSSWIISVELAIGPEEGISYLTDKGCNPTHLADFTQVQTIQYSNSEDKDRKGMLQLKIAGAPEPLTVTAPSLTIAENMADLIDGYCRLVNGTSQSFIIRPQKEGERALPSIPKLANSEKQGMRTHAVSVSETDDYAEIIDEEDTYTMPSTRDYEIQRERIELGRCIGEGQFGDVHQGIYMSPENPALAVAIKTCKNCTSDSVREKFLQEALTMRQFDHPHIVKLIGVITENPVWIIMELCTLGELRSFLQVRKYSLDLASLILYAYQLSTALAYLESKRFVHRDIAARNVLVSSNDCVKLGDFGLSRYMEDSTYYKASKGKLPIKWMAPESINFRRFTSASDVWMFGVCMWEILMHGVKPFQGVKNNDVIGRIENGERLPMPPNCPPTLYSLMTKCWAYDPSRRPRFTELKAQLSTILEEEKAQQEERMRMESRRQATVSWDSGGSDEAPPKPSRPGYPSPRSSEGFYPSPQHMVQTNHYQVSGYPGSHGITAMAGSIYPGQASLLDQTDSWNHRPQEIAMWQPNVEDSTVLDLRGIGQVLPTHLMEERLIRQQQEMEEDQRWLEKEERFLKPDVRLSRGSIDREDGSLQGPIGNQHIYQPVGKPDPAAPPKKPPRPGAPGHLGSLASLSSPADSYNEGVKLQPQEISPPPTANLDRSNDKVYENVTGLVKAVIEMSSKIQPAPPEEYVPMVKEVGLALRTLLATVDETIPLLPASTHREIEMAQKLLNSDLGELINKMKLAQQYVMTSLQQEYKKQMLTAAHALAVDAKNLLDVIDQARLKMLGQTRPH
UniProt P07949, whole entry, looked up: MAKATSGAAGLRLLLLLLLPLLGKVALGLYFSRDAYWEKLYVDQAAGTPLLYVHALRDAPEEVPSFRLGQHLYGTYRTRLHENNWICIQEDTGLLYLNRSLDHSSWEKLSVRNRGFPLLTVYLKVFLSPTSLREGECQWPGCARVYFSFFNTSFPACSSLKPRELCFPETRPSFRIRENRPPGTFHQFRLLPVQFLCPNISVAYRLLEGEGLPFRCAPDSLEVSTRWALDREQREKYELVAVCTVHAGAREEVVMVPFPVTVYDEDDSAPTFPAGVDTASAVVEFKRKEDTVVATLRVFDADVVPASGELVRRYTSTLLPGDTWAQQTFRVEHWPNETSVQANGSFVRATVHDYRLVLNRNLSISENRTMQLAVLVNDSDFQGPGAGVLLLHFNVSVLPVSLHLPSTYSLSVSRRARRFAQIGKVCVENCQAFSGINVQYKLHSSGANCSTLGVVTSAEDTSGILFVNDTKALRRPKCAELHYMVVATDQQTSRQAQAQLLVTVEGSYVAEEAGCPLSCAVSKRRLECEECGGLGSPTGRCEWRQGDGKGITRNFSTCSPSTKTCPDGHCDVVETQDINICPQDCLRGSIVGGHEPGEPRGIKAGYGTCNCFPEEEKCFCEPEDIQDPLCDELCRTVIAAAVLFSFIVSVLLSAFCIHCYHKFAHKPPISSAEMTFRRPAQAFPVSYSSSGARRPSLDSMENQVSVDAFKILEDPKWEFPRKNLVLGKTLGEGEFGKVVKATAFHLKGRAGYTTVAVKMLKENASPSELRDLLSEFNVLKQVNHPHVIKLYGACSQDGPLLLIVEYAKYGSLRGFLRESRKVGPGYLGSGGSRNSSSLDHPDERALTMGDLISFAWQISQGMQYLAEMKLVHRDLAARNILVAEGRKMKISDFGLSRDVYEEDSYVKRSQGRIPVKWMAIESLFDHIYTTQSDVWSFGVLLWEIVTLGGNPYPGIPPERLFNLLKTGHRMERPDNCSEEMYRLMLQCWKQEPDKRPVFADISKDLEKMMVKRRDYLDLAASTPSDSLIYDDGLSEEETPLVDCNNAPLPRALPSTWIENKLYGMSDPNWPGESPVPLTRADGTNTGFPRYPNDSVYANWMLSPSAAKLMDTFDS
UniProt P07949, whole entry M918T, looked up: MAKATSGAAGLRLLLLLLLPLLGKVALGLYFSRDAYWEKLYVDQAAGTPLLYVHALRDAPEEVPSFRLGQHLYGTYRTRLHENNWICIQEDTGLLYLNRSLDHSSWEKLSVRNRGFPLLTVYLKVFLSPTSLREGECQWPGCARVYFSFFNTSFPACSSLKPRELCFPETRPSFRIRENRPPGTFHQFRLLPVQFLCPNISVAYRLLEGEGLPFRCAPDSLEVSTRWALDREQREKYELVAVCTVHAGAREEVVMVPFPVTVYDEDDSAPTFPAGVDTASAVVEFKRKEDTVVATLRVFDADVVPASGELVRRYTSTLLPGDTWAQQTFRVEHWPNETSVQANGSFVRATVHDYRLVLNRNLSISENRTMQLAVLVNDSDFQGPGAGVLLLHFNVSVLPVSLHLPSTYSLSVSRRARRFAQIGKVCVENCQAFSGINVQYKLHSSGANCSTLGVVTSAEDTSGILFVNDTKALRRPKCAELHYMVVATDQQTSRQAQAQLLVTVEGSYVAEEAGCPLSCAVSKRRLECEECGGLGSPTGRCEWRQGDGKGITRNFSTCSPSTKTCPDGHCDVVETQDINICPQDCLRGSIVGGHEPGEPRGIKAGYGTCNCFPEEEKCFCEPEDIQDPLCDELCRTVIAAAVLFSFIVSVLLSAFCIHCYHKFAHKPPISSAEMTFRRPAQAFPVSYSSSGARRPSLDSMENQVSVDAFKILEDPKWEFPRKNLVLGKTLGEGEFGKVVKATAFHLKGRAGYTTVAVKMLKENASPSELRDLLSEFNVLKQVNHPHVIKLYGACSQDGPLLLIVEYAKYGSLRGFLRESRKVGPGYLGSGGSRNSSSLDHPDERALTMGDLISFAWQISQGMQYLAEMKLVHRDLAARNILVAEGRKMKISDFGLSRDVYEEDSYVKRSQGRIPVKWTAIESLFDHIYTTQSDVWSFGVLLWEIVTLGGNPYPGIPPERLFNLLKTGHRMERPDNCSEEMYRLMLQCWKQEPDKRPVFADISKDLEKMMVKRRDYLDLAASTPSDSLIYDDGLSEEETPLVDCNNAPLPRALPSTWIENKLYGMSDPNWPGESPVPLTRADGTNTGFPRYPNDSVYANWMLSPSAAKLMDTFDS
UniProt Q9BRS2: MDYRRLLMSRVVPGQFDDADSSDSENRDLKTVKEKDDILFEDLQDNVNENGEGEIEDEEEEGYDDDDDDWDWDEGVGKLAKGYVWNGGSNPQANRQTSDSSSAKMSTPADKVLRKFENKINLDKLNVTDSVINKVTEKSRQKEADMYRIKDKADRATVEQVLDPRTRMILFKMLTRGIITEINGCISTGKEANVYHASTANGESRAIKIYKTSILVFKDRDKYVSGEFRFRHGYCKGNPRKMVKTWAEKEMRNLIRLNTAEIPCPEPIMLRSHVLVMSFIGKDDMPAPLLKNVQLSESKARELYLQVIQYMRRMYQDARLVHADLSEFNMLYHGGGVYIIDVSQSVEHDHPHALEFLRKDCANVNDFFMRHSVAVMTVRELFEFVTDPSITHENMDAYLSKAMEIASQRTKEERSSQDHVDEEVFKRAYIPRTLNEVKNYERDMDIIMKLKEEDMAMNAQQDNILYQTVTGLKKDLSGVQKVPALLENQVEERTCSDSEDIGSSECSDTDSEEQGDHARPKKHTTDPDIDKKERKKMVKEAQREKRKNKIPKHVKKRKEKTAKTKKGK
UniProt Q9NYA1, whole entry: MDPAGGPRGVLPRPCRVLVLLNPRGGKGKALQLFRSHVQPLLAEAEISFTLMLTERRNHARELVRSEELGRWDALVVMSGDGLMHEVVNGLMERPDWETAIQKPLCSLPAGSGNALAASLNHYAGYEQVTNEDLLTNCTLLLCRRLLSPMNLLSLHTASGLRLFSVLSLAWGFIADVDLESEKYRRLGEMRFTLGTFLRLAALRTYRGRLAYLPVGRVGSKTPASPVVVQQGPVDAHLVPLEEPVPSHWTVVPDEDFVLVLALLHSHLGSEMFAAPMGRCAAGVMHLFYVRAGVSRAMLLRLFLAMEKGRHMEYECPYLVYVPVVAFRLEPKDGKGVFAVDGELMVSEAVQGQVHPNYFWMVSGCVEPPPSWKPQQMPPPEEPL
UniProt Q15208: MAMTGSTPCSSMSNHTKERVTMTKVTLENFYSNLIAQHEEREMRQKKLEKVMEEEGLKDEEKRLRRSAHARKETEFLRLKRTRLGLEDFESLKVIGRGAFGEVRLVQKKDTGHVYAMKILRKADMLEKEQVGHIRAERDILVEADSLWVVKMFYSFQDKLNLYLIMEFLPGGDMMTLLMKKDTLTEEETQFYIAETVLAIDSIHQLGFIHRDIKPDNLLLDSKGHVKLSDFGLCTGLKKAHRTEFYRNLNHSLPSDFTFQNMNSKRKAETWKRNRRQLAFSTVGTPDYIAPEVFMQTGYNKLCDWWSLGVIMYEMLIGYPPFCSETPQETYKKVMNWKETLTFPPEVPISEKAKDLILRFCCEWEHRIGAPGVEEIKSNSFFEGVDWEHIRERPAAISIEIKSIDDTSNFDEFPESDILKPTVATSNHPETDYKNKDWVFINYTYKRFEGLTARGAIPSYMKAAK
UniProt P29597: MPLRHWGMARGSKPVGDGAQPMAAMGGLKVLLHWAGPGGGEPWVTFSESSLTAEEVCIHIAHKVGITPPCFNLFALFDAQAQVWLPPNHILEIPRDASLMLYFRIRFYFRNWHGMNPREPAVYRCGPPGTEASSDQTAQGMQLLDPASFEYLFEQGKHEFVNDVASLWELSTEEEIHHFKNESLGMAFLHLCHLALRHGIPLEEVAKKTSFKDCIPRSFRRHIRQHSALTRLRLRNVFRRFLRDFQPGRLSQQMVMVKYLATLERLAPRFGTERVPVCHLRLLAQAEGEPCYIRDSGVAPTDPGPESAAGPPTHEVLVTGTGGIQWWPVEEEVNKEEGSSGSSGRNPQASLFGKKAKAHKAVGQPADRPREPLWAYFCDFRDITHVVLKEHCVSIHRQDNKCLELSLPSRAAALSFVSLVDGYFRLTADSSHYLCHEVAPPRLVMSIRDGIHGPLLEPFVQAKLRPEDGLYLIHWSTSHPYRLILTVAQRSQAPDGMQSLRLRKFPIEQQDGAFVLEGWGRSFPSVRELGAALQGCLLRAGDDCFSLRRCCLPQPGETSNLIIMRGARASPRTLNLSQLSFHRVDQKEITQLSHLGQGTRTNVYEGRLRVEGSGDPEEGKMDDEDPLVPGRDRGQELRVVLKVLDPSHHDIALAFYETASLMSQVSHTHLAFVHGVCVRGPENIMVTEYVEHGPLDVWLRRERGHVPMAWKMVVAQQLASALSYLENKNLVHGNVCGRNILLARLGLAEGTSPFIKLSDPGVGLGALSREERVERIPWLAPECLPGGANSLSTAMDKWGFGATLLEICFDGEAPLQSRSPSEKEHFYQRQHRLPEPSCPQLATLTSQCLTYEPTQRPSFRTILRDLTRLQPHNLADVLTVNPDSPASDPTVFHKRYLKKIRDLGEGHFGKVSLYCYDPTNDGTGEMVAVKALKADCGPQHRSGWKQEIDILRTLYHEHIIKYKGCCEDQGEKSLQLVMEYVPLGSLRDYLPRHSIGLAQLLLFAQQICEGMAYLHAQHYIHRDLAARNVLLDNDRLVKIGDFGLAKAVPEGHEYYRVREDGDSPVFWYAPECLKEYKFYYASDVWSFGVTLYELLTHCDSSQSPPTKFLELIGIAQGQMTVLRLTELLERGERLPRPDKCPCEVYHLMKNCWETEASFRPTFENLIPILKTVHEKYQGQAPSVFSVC

Legend:
Assay in all cases: number of time points (of 5) at which kinase-Nluc abundance scored as decreased, DMSO-normalised (count); higher = more persistent destabilization
Details in all cases: K562; 2-18 h
[1] = target: PRKCA (UniProt P17252)
[2] = target: PTK2 (UniProt Q05397)
[3] = target: PTK2B (UniProt Q14289)
[4] = target: RAF1 (UniProt P04049)
[5] = target: RAF1_S257L (clone: RAF1_mut) (UniProt P04049)
[6] = target: RET (UniProt P07949)
[7] = target: RET_M918T (clone: RET_mut) (UniProt P07949)
[8] = target: RIOK1 (UniProt Q9BRS2)
[9] = target: RIPK1 (UniProt Q13546)
[10] = target: RIPK2 (UniProt O43353)
[11] = target: ROR2 (UniProt Q01974)
[12] = target: RPS6KA1 (UniProt Q15418)
[13] = target: SPHK1 (UniProt Q9NYA1)
[14] = target: SRC (UniProt P12931)
[15] = target: STK24 (UniProt Q9Y6E0)
[16] = target: STK38 (UniProt Q15208)
[17] = target: SYK (UniProt P43405)
[18] = target: TEC (UniProt P42680)
[19] = target: TYK2 (UniProt P29597)
[20] = target: ULK3 (UniProt Q6PHR2)

Measured: number of time points

O=c1ccoc2cc(O)ccc12 [7-Hydroxy-4H-chromen-4-one] (10 µM)
0: [1] | [2] | [3] | [4] | [5] | [6] | [7] | [8] | [9] | [10] | [11] | [12] | [13] | [14] | [15] | [16] | [17] | [18] | [19] | [20]

Cc1cnc(Nc2ccc(N3CCN(C)CC3)cc2)nc1Nc1cccc(S(=O)(=O)NC(C)(C)C)c1 (2.5 µM)
0: [1] | [2] | [3] | [4] | [5] | [6] | [7] | [8] | [9] | [10] | [11] | [12] | [13] | [14] | [15] | [16] | [17] | [18] | [19] | [20]

COc1ccc(-n2c(C)c([N+](=O)[O-])c3ccc(O)cc32)cc1 (10 µM)
0: [1] | [2] | [3] | [4] | [5] | [6] | [7] | [8] | [9] | [10] | [11] | [12] | [13] | [14] | [15] | [16] | [17] | [18] | [19] | [20]

CC[C@@H]1C(=O)N(C)c2cnc(Nc3ccc(C(=O)N[C@H]4CC[C@H](N5CCN(CC6CC6)CC5)CC4)cc3OC)nc2N1C(C)C [Volasertib] (2.5 µM)
0: [1] | [2] | [3] | [4] | [5] | [6] | [7] | [8] | [9] | [10] | [11] | [12] | [13] | [14] | [15] | [16] | [17] | [18] | [19] | [20]

Two successive records from above:
Cc1cnc(Nc2ccc(N3CCN(C)CC3)cc2)nc1Nc1cccc(S(=O)(=O)NC(C)(C)C)c1 (2.5 µM)
0: [1] | [2] | [3] | [4] | [5] | [6] | [7] | [8] | [9] | [10] | [11] | [12] | [13] | [14] | [15] | [16] | [17] | [18] | [19] | [20]

COc1ccc(-n2c(C)c([N+](=O)[O-])c3ccc(O)cc32)cc1 (10 µM)
0: [1] | [2] | [3] | [4] | [5] | [6] | [7] | [8] | [9] | [10] | [11] | [12] | [13] | [14] | [15] | [16] | [17] | [18] | [19] | [20]

Additional entries:

COC1(C(=O)N[C@@H](C)c2ccc(-n3cc(F)cn3)nc2)CCC(c2nc(C)cc(Nc3cc(C)[nH]n3)n2)CC1 (stereo partly drawn) [trans-Pralsetinib] (2.5 µM)
0: [1] | [2] | [3] | [4] | [5] | [6] | [7] | [8] | [9] | [10] | [11] | [12] | [13] | [14] | [15] | [16] | [17] | [18] | [19] | [20]

C=CS(=O)(=O)c1ccc(Nc2nc(OCC3CCCCC3)c3[nH]cnc3n2)cc1 (2.5 µM)
0: [1] | [2] | [3] | [4] | [6] | [7] | [8] | [10] | [11] | [12] | [13] | [14] | [15] | [16] | [17] | [18] | [20]
2: [19]
3: [5] | [9]

CCCC(=O)Nc1nc2c(ncn2[C@@H]2O[C@@H]3COP(=O)(O)O[C@H]3[C@H]2OC(=O)CCC)c(=O)[nH]1 [Dibutyryl-cGMP (sodium)] (10 µM)
0: [1] | [2] | [3] | [4] | [5] | [6] | [7] | [8] | [9] | [10] | [11] | [12] | [13] | [14] | [15] | [16] | [17] | [18] | [19] | [20]

O=c1nc(N2CCOCC2)oc2c(-c3cccc4c3sc3ccccc34)cccc12 (10 µM)
0: [1] | [2] | [3] | [4] | [5] | [6] | [7] | [8] | [9] | [10] | [11] | [12] | [13] | [14] | [15] | [16] | [17] | [18] | [19] | [20]

Cn1cc(-c2ccc3nnc(C(F)(F)c4ccc5ncccc5c4)n3n2)cn1 (10 µM)
0: [1] | [2] | [3] | [4] | [5] | [6] | [7] | [8] | [9] | [10] | [11] | [12] | [13] | [14] | [15] | [16] | [17] | [18] | [19] | [20]

CCCNC(=O)c1cn2ncnc(Nc3cc(C(=O)NC4CC4)ccc3C)c2c1C (10 µM)
0: [1] | [2] | [3] | [4] | [5] | [6] | [7] | [8] | [9] | [10] | [11] | [12] | [13] | [14] | [15] | [16] | [17] | [18] | [19] | [20]

C=C[C@H]1[C@H](O[C@@H]2O[C@H](CO)[C@@H](O)[C@H](O)[C@H]2OC(=O)c2c(O)cc(O)cc2-c2cccc(O)c2)OC=C2C(=O)OCC[C@H]21 [Amarogentin] (10 µM)
0: [1] | [2] | [3] | [4] | [5] | [6] | [7] | [8] | [9] | [10] | [11] | [12] | [13] | [14] | [15] | [16] | [17] | [18] | [19] | [20]

CCCCCCCC/C=C\CCCCCCCC(=O)NCC(=O)O [N-Oleoyl glycine] (10 µM)
0: [1] | [2] | [3] | [4] | [5] | [6] | [7] | [8] | [9] | [10] | [11] | [12] | [13] | [14] | [15] | [16] | [17] | [18] | [19] | [20]

c1ccc(-c2oc3ncnc(NC[C@@H]4CCCO4)c3c2-c2ccccc2)cc1 (2.5 µM)
0: [1] | [2] | [3] | [4] | [5] | [6] | [7] | [8] | [9] | [10] | [11] | [12] | [13] | [14] | [15] | [16] | [17] | [18] | [19] | [20]

CC[C@@H]1[C@H](F)C(=O)N[C@@H]1COc1nccc2cc(C(N)=O)c(OC)cc12 (10 µM)
0: [1] | [2] | [3] | [4] | [5] | [6] | [7] | [8] | [9] | [10] | [11] | [12] | [13] | [14] | [15] | [16] | [17] | [18] | [19] | [20]

CCOc1nc(Nc2ccc(C(=O)N3CCOCC3)cc2OC)nc2[nH]ccc12 [LRRK2 inhibitor 1] (2.5 µM)
0: [1] | [2] | [3] | [4] | [5] | [6] | [7] | [8] | [9] | [10] | [11] | [12] | [13] | [14] | [15] | [16] | [17] | [18] | [19] | [20]

CNC(=O)c1ccc(-c2cnc3cnc(-c4ccccc4)cn23)cc1 (10 µM)
0: [1] | [2] | [3] | [4] | [5] | [6] | [7] | [8] | [9] | [10] | [11] | [12] | [13] | [14] | [15] | [16] | [17] | [18] | [19] | [20]

CC(C)N(C)c1nc2cc(C(=O)O)ccc2nc1-c1ccc(F)cc1 (10 µM)
0: [1] | [2] | [3] | [4] | [5] | [6] | [7] | [8] | [9] | [10] | [11] | [12] | [13] | [14] | [15] | [16] | [17] | [18] | [19] | [20]

O[C@H]1CC[C@H](Nc2ncc3nc(Nc4c(F)cc(F)cc4F)n([C@H]4CCOC4)c3n2)CC1 [Tanzisertib] (10 µM)
0: [1] | [2] | [3] | [4] | [5] | [6] | [7] | [8] | [9] | [10] | [11] | [12] | [13] | [14] | [15] | [16] | [17] | [18] | [19] | [20]

Nc1cc(C(F)(F)F)c(-c2nc(N3CCOCC3)nc(N3CCOCC3)n2)cn1 [Bimiralisib] (10 µM)
1: [6] | [10] | [16] | [20]
0: [1] | [3] | [8] | [11] | [12] | [13] | [14] | [15] | [17] | [18]
3: [4] | [19]
2: [2] | [5] | [9]
4: [7]

C=CC(=O)Nc1cccc(Oc2nc(Nc3ccc(N4CCN(C)CC4)cc3)nc3ccoc23)c1 [Poseltinib] (10 µM)
0: [1] | [2] | [3] | [4] | [5] | [6] | [7] | [8] | [9] | [10] | [11] | [12] | [13] | [14] | [15] | [16] | [17] | [18] | [19] | [20]

O=C(O)c1ccc(-c2c[nH]c3ncc(-c4ccccc4)cc23)cc1C1CCCC1 (2.5 µM)
0: [2] | [3] | [5] | [6] | [7] | [8] | [9] | [10] | [11] | [12] | [13] | [14] | [15] | [16] | [17] | [18] | [19] | [20]
1: [1] | [4]

Cc1cccc(-c2[nH]ncc2-c2ccc3ncccc3n2)n1 (10 µM)
1: [10]
0: [1] | [2] | [3] | [4] | [5] | [6] | [7] | [8] | [9] | [11] | [12] | [13] | [14] | [15] | [16] | [17] | [18] | [19] | [20]
